# Source: the supplement of paper PMC11006884
# Sequences of proteins named here, by UniProt entry; tags and fusion partners are left off. A change or cut given only in a name is not applied to a line headed by its entry.
# UniProt P13861, whole entry, looked up: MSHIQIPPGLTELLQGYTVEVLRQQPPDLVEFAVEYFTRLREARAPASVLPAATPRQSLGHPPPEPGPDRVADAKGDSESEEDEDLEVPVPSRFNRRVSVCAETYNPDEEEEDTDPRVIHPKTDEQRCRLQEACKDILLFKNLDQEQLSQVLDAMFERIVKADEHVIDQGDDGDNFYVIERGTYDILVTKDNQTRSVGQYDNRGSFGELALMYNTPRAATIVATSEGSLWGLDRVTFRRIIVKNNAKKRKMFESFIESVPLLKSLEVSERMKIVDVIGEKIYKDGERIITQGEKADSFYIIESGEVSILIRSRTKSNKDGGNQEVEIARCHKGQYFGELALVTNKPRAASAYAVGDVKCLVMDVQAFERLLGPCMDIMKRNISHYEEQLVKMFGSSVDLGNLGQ
# UniProt P07814: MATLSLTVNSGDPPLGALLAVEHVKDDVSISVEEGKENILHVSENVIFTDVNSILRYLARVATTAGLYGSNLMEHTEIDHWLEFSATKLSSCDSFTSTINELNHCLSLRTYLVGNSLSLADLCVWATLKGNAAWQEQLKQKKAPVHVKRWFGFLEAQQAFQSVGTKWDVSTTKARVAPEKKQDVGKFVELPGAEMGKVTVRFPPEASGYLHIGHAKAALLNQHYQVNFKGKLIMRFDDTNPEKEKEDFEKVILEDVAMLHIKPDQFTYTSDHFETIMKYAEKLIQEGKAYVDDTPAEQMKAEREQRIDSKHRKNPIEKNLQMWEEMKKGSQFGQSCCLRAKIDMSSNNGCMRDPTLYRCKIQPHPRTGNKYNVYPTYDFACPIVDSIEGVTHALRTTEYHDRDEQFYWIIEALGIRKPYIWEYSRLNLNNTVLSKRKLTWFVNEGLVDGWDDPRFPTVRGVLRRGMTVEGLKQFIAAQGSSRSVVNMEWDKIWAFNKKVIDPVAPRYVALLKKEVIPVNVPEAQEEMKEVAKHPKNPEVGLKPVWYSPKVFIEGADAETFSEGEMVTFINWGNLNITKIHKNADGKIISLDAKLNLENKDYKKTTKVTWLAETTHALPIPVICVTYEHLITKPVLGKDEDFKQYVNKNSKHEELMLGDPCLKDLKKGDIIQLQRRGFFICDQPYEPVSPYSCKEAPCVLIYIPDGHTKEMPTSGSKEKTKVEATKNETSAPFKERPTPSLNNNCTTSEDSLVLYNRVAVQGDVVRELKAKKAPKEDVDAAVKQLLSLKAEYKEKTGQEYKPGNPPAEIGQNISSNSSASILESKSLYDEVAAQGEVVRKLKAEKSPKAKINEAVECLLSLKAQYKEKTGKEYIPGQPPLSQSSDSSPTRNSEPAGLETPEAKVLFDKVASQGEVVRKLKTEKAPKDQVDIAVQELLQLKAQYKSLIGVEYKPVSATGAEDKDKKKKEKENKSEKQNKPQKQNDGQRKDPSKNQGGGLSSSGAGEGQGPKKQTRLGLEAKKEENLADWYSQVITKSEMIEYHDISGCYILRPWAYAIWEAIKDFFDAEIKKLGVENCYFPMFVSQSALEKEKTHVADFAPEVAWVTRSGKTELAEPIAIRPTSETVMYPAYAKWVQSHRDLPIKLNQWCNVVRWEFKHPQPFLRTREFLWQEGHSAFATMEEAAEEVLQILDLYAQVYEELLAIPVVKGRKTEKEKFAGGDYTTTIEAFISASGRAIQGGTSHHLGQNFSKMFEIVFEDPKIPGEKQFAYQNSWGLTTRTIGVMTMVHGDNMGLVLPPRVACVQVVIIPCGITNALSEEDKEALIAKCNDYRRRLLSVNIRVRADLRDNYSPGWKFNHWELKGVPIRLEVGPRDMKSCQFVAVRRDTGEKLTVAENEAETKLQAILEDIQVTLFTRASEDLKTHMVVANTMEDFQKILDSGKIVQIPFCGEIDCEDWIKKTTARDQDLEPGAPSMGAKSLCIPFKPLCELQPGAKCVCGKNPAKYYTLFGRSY
# UniProt P09651: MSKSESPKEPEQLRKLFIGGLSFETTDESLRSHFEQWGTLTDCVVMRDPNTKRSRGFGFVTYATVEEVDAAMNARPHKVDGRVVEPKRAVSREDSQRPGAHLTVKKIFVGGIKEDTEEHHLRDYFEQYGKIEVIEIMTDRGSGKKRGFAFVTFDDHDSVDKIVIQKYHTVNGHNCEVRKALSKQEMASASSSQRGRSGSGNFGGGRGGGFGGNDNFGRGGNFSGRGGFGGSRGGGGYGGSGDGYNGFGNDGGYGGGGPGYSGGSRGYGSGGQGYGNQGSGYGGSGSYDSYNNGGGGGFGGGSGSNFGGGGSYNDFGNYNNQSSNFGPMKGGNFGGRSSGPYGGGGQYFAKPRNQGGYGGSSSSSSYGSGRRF
# UniProt P08240: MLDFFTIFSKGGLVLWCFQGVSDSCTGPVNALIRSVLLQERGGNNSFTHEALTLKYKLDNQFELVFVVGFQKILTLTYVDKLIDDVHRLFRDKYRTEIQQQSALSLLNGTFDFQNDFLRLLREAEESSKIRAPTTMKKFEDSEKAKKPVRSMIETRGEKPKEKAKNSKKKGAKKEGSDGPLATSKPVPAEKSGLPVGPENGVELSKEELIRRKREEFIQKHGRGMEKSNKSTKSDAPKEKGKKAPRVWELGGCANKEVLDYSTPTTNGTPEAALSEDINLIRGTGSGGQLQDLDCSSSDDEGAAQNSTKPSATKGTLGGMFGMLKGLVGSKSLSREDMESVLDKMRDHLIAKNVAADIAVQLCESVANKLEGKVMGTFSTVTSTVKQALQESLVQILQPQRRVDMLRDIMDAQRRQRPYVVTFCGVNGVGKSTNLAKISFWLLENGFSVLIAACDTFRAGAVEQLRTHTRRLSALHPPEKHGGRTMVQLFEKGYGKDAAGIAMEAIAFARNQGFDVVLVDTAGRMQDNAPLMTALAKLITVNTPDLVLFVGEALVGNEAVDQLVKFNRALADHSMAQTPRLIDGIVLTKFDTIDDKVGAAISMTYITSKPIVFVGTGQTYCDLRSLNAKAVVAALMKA
# UniProt P13798: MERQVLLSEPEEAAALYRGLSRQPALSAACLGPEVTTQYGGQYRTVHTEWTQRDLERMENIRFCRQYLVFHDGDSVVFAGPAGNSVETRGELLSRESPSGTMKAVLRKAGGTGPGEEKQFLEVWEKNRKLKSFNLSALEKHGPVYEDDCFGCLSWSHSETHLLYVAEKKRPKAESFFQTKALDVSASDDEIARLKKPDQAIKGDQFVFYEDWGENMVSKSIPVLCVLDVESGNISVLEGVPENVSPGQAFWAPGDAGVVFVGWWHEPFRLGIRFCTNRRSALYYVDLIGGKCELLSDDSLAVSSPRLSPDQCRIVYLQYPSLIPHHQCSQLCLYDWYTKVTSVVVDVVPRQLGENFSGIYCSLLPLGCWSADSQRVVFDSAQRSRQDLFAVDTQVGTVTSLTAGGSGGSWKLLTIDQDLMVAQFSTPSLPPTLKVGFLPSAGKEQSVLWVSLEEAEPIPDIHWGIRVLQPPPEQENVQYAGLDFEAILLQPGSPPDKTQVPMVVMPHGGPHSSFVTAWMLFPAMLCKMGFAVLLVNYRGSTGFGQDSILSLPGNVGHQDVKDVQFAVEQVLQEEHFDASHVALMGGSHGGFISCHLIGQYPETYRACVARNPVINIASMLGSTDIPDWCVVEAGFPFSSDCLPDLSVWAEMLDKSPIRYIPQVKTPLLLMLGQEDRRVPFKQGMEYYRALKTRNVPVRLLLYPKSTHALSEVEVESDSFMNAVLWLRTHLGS
# UniProt P15170, whole entry, looked up: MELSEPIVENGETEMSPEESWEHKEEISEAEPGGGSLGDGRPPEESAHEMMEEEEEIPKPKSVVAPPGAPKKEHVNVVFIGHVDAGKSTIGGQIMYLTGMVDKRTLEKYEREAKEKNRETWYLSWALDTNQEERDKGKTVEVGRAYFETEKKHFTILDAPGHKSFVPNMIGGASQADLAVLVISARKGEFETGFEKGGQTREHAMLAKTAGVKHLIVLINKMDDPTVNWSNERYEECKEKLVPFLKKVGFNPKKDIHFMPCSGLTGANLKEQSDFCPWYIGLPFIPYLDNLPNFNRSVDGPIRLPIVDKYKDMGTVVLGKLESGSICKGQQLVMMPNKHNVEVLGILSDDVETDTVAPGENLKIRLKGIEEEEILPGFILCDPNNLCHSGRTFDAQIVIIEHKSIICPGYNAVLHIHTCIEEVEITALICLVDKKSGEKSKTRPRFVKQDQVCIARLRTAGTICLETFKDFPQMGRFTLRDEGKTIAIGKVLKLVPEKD
# UniProt P10155: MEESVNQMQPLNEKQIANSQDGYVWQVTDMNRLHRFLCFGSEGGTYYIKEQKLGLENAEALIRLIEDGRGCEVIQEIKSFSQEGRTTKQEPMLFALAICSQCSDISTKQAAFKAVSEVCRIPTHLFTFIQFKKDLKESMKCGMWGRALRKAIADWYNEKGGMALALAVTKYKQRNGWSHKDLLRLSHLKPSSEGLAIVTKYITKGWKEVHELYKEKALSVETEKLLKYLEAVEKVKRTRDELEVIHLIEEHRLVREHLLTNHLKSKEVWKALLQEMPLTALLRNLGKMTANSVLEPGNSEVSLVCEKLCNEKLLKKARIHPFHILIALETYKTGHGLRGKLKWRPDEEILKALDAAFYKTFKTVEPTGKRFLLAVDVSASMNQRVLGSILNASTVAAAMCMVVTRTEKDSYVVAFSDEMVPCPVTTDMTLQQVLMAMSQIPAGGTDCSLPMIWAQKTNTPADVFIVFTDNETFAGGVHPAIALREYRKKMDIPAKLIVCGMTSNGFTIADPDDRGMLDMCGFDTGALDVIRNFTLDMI
# UniProt P08237: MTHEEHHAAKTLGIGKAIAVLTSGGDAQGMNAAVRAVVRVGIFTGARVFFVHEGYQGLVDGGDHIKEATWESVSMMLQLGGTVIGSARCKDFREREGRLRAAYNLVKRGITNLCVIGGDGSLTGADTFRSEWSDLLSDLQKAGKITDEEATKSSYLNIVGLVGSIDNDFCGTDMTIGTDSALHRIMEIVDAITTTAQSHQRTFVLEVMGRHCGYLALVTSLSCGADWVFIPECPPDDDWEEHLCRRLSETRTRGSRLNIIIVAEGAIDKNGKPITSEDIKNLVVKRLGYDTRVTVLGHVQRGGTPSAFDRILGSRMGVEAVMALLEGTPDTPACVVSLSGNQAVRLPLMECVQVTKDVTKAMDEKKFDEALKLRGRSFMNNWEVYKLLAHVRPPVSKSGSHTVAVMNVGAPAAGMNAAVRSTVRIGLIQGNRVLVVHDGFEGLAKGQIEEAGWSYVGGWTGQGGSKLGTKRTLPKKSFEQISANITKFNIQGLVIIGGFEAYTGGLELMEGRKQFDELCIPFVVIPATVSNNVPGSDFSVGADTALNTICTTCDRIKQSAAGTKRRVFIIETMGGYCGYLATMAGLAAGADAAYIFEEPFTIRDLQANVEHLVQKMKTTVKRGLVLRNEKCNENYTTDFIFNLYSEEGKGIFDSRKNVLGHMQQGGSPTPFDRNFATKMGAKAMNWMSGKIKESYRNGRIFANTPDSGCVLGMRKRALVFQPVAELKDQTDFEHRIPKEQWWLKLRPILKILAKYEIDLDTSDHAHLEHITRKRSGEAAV
# UniProt P16152: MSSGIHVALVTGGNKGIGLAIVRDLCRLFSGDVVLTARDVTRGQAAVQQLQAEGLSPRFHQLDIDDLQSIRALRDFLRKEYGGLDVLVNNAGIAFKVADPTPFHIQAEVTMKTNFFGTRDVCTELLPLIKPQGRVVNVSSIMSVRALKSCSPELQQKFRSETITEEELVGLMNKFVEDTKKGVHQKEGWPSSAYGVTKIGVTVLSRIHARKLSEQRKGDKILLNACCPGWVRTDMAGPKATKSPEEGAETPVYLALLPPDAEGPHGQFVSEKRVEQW
# UniProt P09429: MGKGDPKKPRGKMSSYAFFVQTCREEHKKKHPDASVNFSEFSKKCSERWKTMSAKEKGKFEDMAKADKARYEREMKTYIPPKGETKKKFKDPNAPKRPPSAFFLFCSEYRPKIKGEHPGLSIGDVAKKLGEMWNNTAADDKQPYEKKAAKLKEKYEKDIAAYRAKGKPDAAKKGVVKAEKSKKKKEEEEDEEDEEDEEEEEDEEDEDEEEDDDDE
# UniProt P17812: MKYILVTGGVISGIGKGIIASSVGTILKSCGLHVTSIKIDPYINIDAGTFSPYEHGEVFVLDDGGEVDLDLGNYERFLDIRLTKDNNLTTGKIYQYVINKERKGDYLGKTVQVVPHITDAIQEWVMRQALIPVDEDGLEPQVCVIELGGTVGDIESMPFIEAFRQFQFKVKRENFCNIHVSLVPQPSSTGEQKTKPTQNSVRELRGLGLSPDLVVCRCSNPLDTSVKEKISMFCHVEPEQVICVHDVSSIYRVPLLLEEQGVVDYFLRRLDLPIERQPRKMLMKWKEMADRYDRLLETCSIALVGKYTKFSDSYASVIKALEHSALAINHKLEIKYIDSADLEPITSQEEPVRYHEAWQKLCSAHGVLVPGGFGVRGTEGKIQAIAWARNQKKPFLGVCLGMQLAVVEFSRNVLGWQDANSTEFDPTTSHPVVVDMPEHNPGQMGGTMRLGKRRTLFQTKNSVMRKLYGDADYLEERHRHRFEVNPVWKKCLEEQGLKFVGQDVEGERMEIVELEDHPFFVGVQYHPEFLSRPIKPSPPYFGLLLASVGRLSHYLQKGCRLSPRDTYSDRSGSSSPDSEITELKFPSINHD
# The list shows a part of the results, in another mix than the full data.
# Compound: COC(=O)C#Cc1ccccc1 [methyl 3-phenylpropiolate]
# Assay: log2 ratio of iodoacetamide-alkyne labeling of the cysteine site, DMSO over compound (competition); higher = stronger covalent engagement of the cysteine by the compound, active = 1 or more
# Conditions: 500 µM; treatment time 1 h; system: HEK293T cell lysate
# Outline: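 After 1 h at ambient temperature with vehicle or electrophile (500 µM), HEK293T lysate (2 mg/mL) was labelled for 1 h with iodoacetamide alkyne and clicked to sCIP-TMT reagents. Pooled samples were trypsin-digested overnight at 37 °C, streptavidin-enriched, acid-eluted and analysed by Orbitrap Eclipse LC-MS/MS with FAIMS, then quantified in FragPipe over three replicates with duplicate channels. A cysteine's log2 competition ratio is its mean control-channel over mean compound-channel reporter intensity. Cysteines quantified in only one replicate were not included.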
row,Target,log2 ratio of iodoacetamide-alkyne labeling
1,IRF2 C83 (UniProt P14316),inactive: -0.0958
2,IMPDH2 C95 (UniProt P12268),inactive: -0.293
3,IMPDH2 C468 (UniProt P12268),inactive: 0.0778
4,PRKAR2A C128 (UniProt P13861),inactive: 0.00919
5,EPRS C660 (UniProt P07814),inactive: 0.394
6,HNRNPA1 C43 (UniProt P09651),inactive: -0.0112
7,RPS17 C35 (UniProt P08708),inactive: -0.00485
8,GYS1 C699 (UniProt P13807),inactive: 0.526
9,UniProt P08240_C424,inactive: 0.273
10,CNP C111 (UniProt P09543),inactive: 0.0267
11,APEH C30 (UniProt P13798),inactive: -0.0188
12,GSPT1 C261 (UniProt P15170),inactive: 0.384
13,GYS1 C564 (UniProt P13807),inactive: 0.416
14,EEF2 C812 (UniProt P13639),inactive: 0.148
15,DDX5 C191 (UniProt P17844),inactive: 0.0899
16,NFIC C88 (UniProt P08651),inactive: 0.217
17,TPR C75 (UniProt P12270),inactive: 0.197
18,HNRNPL C581 (UniProt P14866),inactive: -0.0402
19,UniProt P14618_C326,inactive: -0.0946

# An excerpt of these results, tab-delimited:
row	Target	log2 ratio of iodoacetamide-alkyne labeling
7	RPS17 C35 (UniProt P08708)	inactive: -0.00485
9	UniProt P08240_C424	inactive: 0.273

# Going on with the list:

row,Target,log2 ratio of iodoacetamide-alkyne labeling
1,SNRPB C43 (UniProt P14678),inactive: 0.0808
2,UniProt P10155_C38,inactive: 0.677
3,EPRS C744 (UniProt P07814),inactive: 0.153
4,ACAA1 C177 (UniProt P09110),inactive: 0.162
5,HSP90AA1 C572 (UniProt P07900),inactive: 0.166
6,PFKM C709 (UniProt P08237),inactive: 0.13
7,CBR1 C122 (UniProt P16152),inactive: 0.0981
8,EEF2 C369 (UniProt P13639),inactive: 0.24
9,CBR1 C226 (UniProt P16152),inactive: 0.0193
10,HMGB1 C23 (UniProt P09429),inactive: 0.00505
11,G6PD C294 (UniProt P11413),inactive: 0.282
12,U2AF1L5 C169 (UniProt P0DN76),inactive: -0.00444
13,UniProt P17812_C216,inactive: -0.127
14,U2AF1L5 C163 (UniProt P0DN76),inactive: 0.181
15,UniProt P0DN79_C15,active: 2.27
16,LAMC1 C351 (UniProt P11047),inactive: 0.736
17,GSPT1 C327 (UniProt P15170),inactive: 0.0988
18,EEF2 C567 (UniProt P13639),inactive: 0.0358
